The source of these data is patent US20060029946A1.

Sequences of proteins named here, by UniProt entry; tags and fusion partners are left off. A change or cut given only in a name is not applied to a line headed by its entry.
UniProt P17081: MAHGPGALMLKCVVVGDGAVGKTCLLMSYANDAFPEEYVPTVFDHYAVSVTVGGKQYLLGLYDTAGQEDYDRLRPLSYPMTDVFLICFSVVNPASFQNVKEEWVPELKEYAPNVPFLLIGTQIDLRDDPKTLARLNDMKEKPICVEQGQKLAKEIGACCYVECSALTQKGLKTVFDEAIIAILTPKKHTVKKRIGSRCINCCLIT
UniProt P42768: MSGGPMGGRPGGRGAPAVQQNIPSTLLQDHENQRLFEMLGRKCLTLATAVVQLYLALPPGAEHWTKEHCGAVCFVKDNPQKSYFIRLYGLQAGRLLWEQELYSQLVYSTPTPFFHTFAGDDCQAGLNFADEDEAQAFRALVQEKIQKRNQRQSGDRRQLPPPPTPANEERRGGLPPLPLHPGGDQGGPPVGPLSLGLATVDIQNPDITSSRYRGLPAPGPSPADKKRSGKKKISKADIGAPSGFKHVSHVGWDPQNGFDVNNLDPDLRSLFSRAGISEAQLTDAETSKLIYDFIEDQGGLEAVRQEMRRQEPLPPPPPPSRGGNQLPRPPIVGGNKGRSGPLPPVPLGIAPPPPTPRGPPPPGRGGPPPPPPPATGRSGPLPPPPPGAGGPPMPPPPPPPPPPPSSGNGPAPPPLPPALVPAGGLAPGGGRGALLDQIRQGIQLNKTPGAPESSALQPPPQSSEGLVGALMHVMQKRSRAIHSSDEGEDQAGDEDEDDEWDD

Results are given in words; binding and its absence hold for the method and conditions named. Some entries that bind do so weakly or less than the wild type.

The assay concerns the target TC10 (activated GTPase) (UniProt P17081). The assay can be described thus: fluorescence response with different activated GTPases.

Turning to “WASP fragment F271C labeled with I-SO dye (from UniProt P42768 201-320)”, the binding result is “binds”.
